Among the data in PMC4441004, “Functional Characterization and Categorization of Missense Mutations that Cause Methylmalonyl‐CoA Mutase (MUT) Deficiency” (Human Mutation, 2014) are binding values, retold here.

This assay deals with Methylmalonyl-CoA mutase (MUT), wild type (human) (UniProt P22033). As to the kind of experiment: SEC; Superdex 200 in the large-scale purification from E. coli; retention volumes of the mutants compared with wt MUT; data not shown; both purified. A general note: In gel filtration, larger molecules generally elute earlier.

Results are given in words; binding and its absence hold for the method and conditions named. Some entries that bind do so weakly or less than the wild type.

B1: Methylmalonyl-CoA mutase (MUT), wild type (enzyme, UniProt P22033 33-750)
chain: LHQQQPLHPEWAALAKKQLKGKNPEDLIWHTPEGISIKPLYSKRDTMDLPEELPGVKPFTRGPYPTMYTFRPWTIRQYAGFSTVEESNKFYKDNIKAGQQGLSVAFDLATHRGYDSDNPRVRGDVGMAGVAIDTVEDTKILFDGIPLEKMSVSMTMNGAVIPVLANFIVTGEEQGVPKEKLTGTIQNDILKEFMVRNTYIFPPEPSMKIIADIFEYTAKHMPKFNSISISGYHMQEAGADAILELAYTLADGLEYSRTGLQAGLTIDEFAPRLSFFWGIGMNFYMEIAKMRAGRRLWAHLIEKMFQPKNSKSLLLRAHCQTSGWSLTEQDPYNNIVRTAIEAMAAVFGGTQSLHTNSFDEALGLPTVKSARIARNTQIIIQEESGIPKVADPWGGSYMMECLTNDVYDAALKLINEIEEMGGMAKAVAEGIPKLRIEECAARRQARIDSGSEVIVGVNKYQLEKEDAVEVLAIDNTSVRNRQIEKLKKIKSSRDQALAERCLAALTECAASGDGNILALAVDASRARCTVGEITDALKKVFGEHKANDRMVSGAYRQEFGESKEITSAIKRVHKFMEREGRRPRLLVAKMGQDGHDRGAKVIATGFADLGFDVDIGPLFQTPREVAQQAVDADVHAVGISTLAAGHKTLVPELIKELNSLGRPDILVMCGGVIPPQDYEFLFEVGVSNVFGPGTRIPKAAVQVLDDIEKCLEKKQQSV
Consider B1, for which the binding entry is recorded as “binds”.
